Results deposited as PubChem BioAssay AID743121 (NCATS, 2013).
The deposit covers about 26,000 reagents; this is a random part of them. 167 of them (0.63%) count as active. 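Calls are per gene from RSA p-values that are not deposited; an individual active-marked siRNA can sensitise only weakly.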 Reagents against one gene are numbered here. Further read-outs or replicates are left out here.

Assay: 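Partners whose loss is lethal together with topoisomerase I blockade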 (primary screen)
Cells: MDA-MB-231 cells, a human breast cancer line
Reagent: single siRNA against human genes, 20 nM siRNA (0.8 pmol per well)
Timing: 120 h (drug added 48 h after transfection, read 72 h later)
Conditions: camptothecin 20 nM (about EC30) for 72 h; vehicle 0.1% DMSO in parallel plates
Measurement: 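Cell viability by ATP luminescence (CellTiter-Glo) as % of non-targeting siRNA wells, and the log2 ratio of viability without drug over viability with camptothecin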
Reading the numbers: log2 vehicle/camptothecin viability: higher = stronger sensitisation to camptothecin
Call rule: 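Each gene scored by redundant siRNA activity (RSA) over its individual siRNA ratios; a gene is called active at p < 0.001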

MTMR7 #1
- log2 vehicle/camptothecin viability: -0.00508
- Outcome: inactive

MTMR7 #2
- log2 vehicle/camptothecin viability: -0.0272
- Outcome: inactive

MTMR7 #3
- log2 vehicle/camptothecin viability: 1.07
- Outcome: inactive

MTMR7 #4
- log2 vehicle/camptothecin viability: -0.764
- Outcome: inactive

GPR132 #1
- log2 vehicle/camptothecin viability: 0.316
- Outcome: inactive

GPR132 #2
- log2 vehicle/camptothecin viability: 0.523
- Outcome: inactive

GPR132 #3
- log2 vehicle/camptothecin viability: -0.331
- Outcome: inactive

GPR132 #4
- log2 vehicle/camptothecin viability: -0.252
- Outcome: inactive

ADAM12 #1
- log2 vehicle/camptothecin viability: -0.114
- Outcome: inactive

ADAM12 #2
- log2 vehicle/camptothecin viability: -0.531
- Outcome: inactive

ADAM12 #3
- log2 vehicle/camptothecin viability: -0.232
- Outcome: inactive

ADAM12 #4
- log2 vehicle/camptothecin viability: -0.136
- Outcome: inactive

FZD4 #1
- log2 vehicle/camptothecin viability: -0.0871
- Outcome: inactive

FZD4 #2
- log2 vehicle/camptothecin viability: -0.395
- Outcome: inactive

FZD4 #3
- log2 vehicle/camptothecin viability: -0.503
- Outcome: inactive

FZD4 #4
- log2 vehicle/camptothecin viability: -0.284
- Outcome: inactive

MTUS1 #1
- log2 vehicle/camptothecin viability: -0.0615
- Outcome: inactive

MTUS1 #2
- log2 vehicle/camptothecin viability: -0.183
- Outcome: inactive

MTUS1 #3
- log2 vehicle/camptothecin viability: -0.282
- Outcome: inactive

MTUS1 #4
- log2 vehicle/camptothecin viability: -0.33
- Outcome: inactive

SLAMF6 #1
- log2 vehicle/camptothecin viability: -0.294
- Outcome: inactive

SLAMF6 #2
- log2 vehicle/camptothecin viability: -0.389
- Outcome: inactive

SLAMF6 #3
- log2 vehicle/camptothecin viability: 0.0212
- Outcome: inactive

SLAMF6 #4
- log2 vehicle/camptothecin viability: 0.00327
- Outcome: inactive

A run of entries taken from the entries so far:
ADAM12 #4
- log2 vehicle/camptothecin viability: -0.136
- Outcome: inactive

FZD4 #1
- log2 vehicle/camptothecin viability: -0.0871
- Outcome: inactive

FZD4 #2
- log2 vehicle/camptothecin viability: -0.395
- Outcome: inactive
